Library compounds against nucleic acid targets

Data from the ROBIN nucleic acid binder screens, doi:10.1002/anie.202211358.

Oligonucleotides screened, 5′ to 3′:
PreQ1: PreQ1 riboswitch RNA pseudoknot, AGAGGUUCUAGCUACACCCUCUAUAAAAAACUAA. From B. subtilis. Hit rate about 0.7% of about 24,000 compounds.
SAM-II: SAM-II riboswitch RNA pseudoknot, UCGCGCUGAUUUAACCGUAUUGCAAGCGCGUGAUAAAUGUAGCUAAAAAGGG. Hit rate about 1% of about 21,000 compounds.
TPP: TPP riboswitch RNA three-way junction, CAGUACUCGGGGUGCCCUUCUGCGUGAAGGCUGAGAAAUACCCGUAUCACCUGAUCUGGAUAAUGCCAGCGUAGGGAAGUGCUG. Hit rate about 0.7% of about 24,000 compounds.

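The test is a small-molecule microarray: each compound is printed twice on a reactive slide, and binding shows as fluorescence of the labelled oligonucleotide after washing. For the PreQ1, TPP and SAM-II riboswitches the laboratory earlier reported (doi:10.1038/s41467-019-09493-3) 1 µM RNA, 2 h, and a rule that included a mean Z-score above 3 (spot signal-to-noise against the whole library), a score well above that on a control array, and duplicate spots agreeing (coefficient of variation under 100). The data file gives only the calls; its cut-offs may differ, and compounds hitting several targets are kept. A missing hit is not proof of no binding, and a hit is not a measured affinity.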 A compound is marked hit if it was called a hit and no hit if it was screened but was not. Compounds were drawn at random from those tested, without regard to their results. A dash means that no call is listed here.

| # | SMILES | PreQ1 | SAM-II | TPP |
|---|---|---|---|---|
| 1 | `CCO[C@H]1CN(C)C[C@@H]1NCc1cc(O)c2cc(F)ccc2n1` | no hit | no hit | no hit |
| 2 | `CC(NCCc1ccc(O)cc1)C(O)c1ccc(O)cc1` (centres undefined) | no hit | no hit | no hit |
| 3 | `CC(Cc1cccs1)NCCC(=O)Nc1cccnc1` (centres undefined) | no hit | no hit | no hit |
| 4 | `CC(=O)N1CCN(CC(O)COc2ccc(C)cc2)CC1` (centres undefined) | no hit | no hit | no hit |
| 5 | `Cc1nonc1OCCNC1CCN(c2nc3ccccc3s2)CC1` | no hit | no hit | no hit |
| 6 | `c1ccc(-c2nnc(-c3ccccc3)nn2)cc1` | no hit | no hit | no hit |
| 7 | `CCOC(=O)N1CCN(c2c(NCCCN3CCN(c4ccccc4F)CC3)c(=O)c2=O)CC1` | no hit | - | no hit |
| 8 | `CCCn1nnnc1NCc1ccc2c(c1)n(C)c(=O)n2C` | no hit | - | no hit |
| 9 | `Nc1ccc2cn[nH]c2c1` | no hit | no hit | no hit |
| 10 | `COc1cc(N2CCCC(Cc3nc4ccccc4[nH]3)C2)nc(N)n1` (centres undefined) | no hit | no hit | no hit |
| 11 | `CCC(CO)N(Cc1ccncc1)C(=O)Nc1cccc(N(C)C)c1` (centres undefined) | no hit | no hit | no hit |
| 12 | `O=C(NCc1cc2n(n1)CCCNC2)c1cn(-c2ccccc2)nn1` | no hit | no hit | no hit |
| 13 | `COc1cc(NCC2CNCCOC2)ncn1` (centres undefined) | no hit | no hit | no hit |
| 14 | `CCc1ccc2occ(Cc3ncnn3CCO)c2c1` | no hit | no hit | no hit |
| 15 | `Cc1nc(N2CCCC2)nc(N2CCOCC(O)C2)c1C` (centres undefined) | no hit | no hit | no hit |
| 16 | `COc1c(F)c(F)c(C(=O)O)c(Nc2ccc(C)cc2C)c1F` | no hit | no hit | no hit |
| 17 | `COc1ccc(CCNCC2CCCO2)cc1.Cl` (centres undefined) | no hit | no hit | no hit |
| 18 | `COc1cccc2c1OC(N)=C(C#N)C2` | no hit | no hit | no hit |
| 19 | `Cc1nnc(-c2ccc(NC(=O)CCc3cc4n(n3)CCCNC4)cc2)[nH]1` | no hit | no hit | no hit |
| 20 | `CCCCN1CCN(C(C(=O)N[C@H]2CC[C@H](O)CC2)c2ccccc2)C(=O)C1=O` (some centres undefined) | no hit | no hit | no hit |
| 21 | `CC(C)c1cc(C(=O)N2CCC3(CC2)OCCCC3O)nc2ncnn12` (centres undefined) | no hit | no hit | no hit |
| 22 | `Cc1c(Cl)cccc1Nc1c(-c2cccc(O)c2)nc2cnccn12` | no hit | - | no hit |
| 23 | `COc1ccc(S(=O)(=O)N2CCC(CN)CC2)cc1OC` | no hit | - | no hit |
| 24 | `CC(C)c1nc2c([nH]1)c(=O)n(C)c(=O)n2C` | no hit | no hit | no hit |
| 25 | `CC(C)n1c(C(O)c2ccc3c(c2)OCO3)nc2ccccc21` (centres undefined) | no hit | no hit | no hit |
| 26 | `COc1ccc(-c2nn3c(N4CCN(CCO)CC4)cc(C)nc3c2C)cc1OC` | no hit | - | no hit |
| 27 | `Cc1cc(NC(C)c2ccccc2)n2ncc(-c3ccc(F)cc3)c2n1` (centres undefined) | no hit | - | no hit |
| 28 | `OCC#CCSc1nc2ccccc2n1Cc1ccccc1` | no hit | no hit | no hit |
| 29 | `CCCCCCNc1nc(-c2ccc(OC)cc2)c(CCC(=O)O)s1` | no hit | - | no hit |
| 30 | `CSc1ccc(CN(C(=O)[C@@H](N)Cc2c[nH]c3ccccc23)C2CC2)cc1` | no hit | no hit | no hit |
| 31 | `Cc1cccc(-c2nc3nc(C)cc(Nc4ccc(N(C)C)cc4)n3n2)c1` | no hit | - | no hit |
| 32 | `CCOC(=O)N1CCC(Nc2c(N(Cc3ccccc3)C(C)C)c(=O)c2=O)CC1` | no hit | - | no hit |
| 33 | `CCCc1cc(NCCOC)n2nc3nc(C)cc(C)c3c2n1` | no hit | - | no hit |
| 34 | `COC(=O)c1ccccc1NC1c2ccccc2C(=O)N1Cc1ccccc1Cl` (centres undefined) | no hit | no hit | no hit |
| 35 | `CC(=O)OCC(=O)[C@@]12N=C(C)O[C@H]1C[C@H]1[C@@H]3CCC4=CC(=O)C=C[C@]4(C)[C@@H]3[C@@H](O)C[C@@]12C` | no hit | no hit | no hit |
| 36 | `O=C(O)c1c(CNCc2ccco2)c2ccccc2n1Cc1ccccc1Cl` | no hit | - | no hit |
| 37 | `OCCNc1nc(-c2ccsc2)ncc1F` | no hit | no hit | no hit |
| 38 | `Cc1ccc(C2C=CC(C#N)=CN2Cc2ccccc2)cc1` (centres undefined) | no hit | no hit | no hit |
| 39 | `CCCS(=O)(=O)N1CCN(c2cc(C)nc(Nc3ccc(C)cc3)n2)CC1` | no hit | - | no hit |

Repeated from the top, 3 entries:

SMILES,PreQ1,SAM-II,TPP
CCO[C@H]1CN(C)C[C@@H]1NCc1cc(O)c2cc(F)ccc2n1,no hit,no hit,no hit
CC(NCCc1ccc(O)cc1)C(O)c1ccc(O)cc1 (centres undefined),no hit,no hit,no hit
CC(Cc1cccs1)NCCC(=O)Nc1cccnc1 (centres undefined),no hit,no hit,no hit